In ChEMBL document CHEMBL5214984, “Identification of Organic Anion Transporter 2 Inhibitors: Screening, Structure-Based Analysis, and Clinical Drug Interaction Risk Assessment” (J Med Chem, 2022):

Experiment: Lipophilicity, log D of the compound
Details: octanol/water

Work on `COC(=O)C1=C(C)NC(C)=C(C(=O)OC)C1c1ccccc1[N+](=O)[O-]` [NIFEDIPINE] yielded a logD of 3.13.
